The text below walks through data of patent US6486129B1, “Antithrombotic compounds” (Akzo Nobel N.V., priority 1998, dated 2002).

The target in experiment [1] is Human thrombin (Factor IIa) (Homo sapiens, UniProt P00734). Put plainly: Anti-thrombin assay (chromogenic substrate S-2238, TNP buffer). It counts as biochemical. The note with it: read-out: Antithrombin activity IC50, S-2238, TNP buffer pH 7.4, 37° C., tested form: Na salt.
For the next experiment, the system named is Activated Factor X (Xa). Put plainly: Anti-factor Xa assay (chromogenic substrate S-2222, TNP buffer). The conditions noted are these: tested form: Na salt. On the procedure: Activated Factor X (Xa) is a factor in the coagulation cascade. The anti-Xa activity of compounds of the present invention was assessed by measuring spectrophotometrically the rate of hydrolysis of the chromogenic substrate s-2222 exterted by Xa. This assay for anti-Xa activity in a buffer system was used to assess the IC50-value of the test compound.
In general the followed procedure and test conditions were analogous to those of the anti-thrombin assay as described above. Differences are indicated below.
Reference compound: benzamidine
Solubilisation can be assisted with dimethylsulphoxide, methanol ethanol, acetonitrile or tert.-butyl alcohol which are without adverse effects in concentrations up to 1% (for DMSO) and 2.5% (for the other solvents) in the final reaction mixture.
One vial S-2222 (15 mg; Kabi Diagnostica, Sweden) is dissolved in 10 ml water to give a concentration of 1.5 mg·ml^−1 (2 mmol·l^−1).
Bovine Factor Xa Human (71 nKat·vial^−1; Kabi Diagnostica) is dissolved in 10 ml TNP buffer and then further diluted with 30 ml TNP buffer to give a concentration of 1.77 nKat·ml^−1. The dilution has to be freshly prepared.
Instead of the S-2238 solution (in anti-thrombin assay), the above S-2222 solution is added to each well in this assay.

The structures appear in SMILES notation. Structures were worked out from names or drawings and are uncertain.

By IC50 is commonly meant the midpoint of a concentration-inhibition curve. In the case of `CO[C@H]1O[C@H](COS(=O)(=O)O)[C@@H](O[C@@H]2O[C@@H](C(=O)O)[C@@H](O[C@H]3O[C@H](COS(=O)(=O)O)[C@@H](O[C@@H]4O[C@H](C(=O)O)[C@@H](O[C@H]5O[C@H](COS(=O)(=O)O)[C@@H](OCCOCCOCCOCCNC(=O)c6ccc(NC(=O)CSC[C@H](NS(=O)(=O)c7ccc8ccccc8c7)C(=O)NC(Cc7ccc(C(=N)N)cc7)C(=O)N7CCCCC7)cc6)[C@H](OS(=O)(=O)O)[C@H]5OS(=O)(=O)O)[C@H](OC)[C@H]4OS(=O)(=O)O)[C@H](OS(=O)(=O)O)[C@H]3OS(=O)(=O)O)[C@H](OC)[C@H]2OS(=O)(=O)O)[C@H](OS(=O)(=O)O)[C@H]1OS(=O)(=O)O` (some centres unmarked), the IC50 in experiment [1] came to 350 nM. The “Anti-factor Xa activity” value in the experiment with Activated Factor X (Xa) is reported as 885 U/mg.
